Laboratory results reported in PMC6001137.
These are yes or no findings as the source states them, for the method shown. In cells and extracts the contact can be indirect.

Sequences of proteins named here, by UniProt entry; tags and fusion partners are left off.
UniProt P24529: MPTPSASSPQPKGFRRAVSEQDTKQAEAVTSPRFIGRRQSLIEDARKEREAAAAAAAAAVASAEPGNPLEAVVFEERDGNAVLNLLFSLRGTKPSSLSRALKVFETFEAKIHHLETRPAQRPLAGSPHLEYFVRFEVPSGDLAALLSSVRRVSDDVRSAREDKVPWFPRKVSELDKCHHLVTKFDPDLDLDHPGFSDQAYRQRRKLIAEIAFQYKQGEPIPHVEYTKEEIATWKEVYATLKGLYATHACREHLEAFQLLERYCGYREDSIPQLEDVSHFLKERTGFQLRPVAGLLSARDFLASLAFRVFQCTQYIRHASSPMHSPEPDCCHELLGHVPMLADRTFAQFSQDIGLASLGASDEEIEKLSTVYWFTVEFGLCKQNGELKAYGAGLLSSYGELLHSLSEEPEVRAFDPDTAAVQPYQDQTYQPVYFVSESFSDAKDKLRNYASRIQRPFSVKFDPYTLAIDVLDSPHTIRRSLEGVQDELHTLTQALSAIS
UniProt Q62083: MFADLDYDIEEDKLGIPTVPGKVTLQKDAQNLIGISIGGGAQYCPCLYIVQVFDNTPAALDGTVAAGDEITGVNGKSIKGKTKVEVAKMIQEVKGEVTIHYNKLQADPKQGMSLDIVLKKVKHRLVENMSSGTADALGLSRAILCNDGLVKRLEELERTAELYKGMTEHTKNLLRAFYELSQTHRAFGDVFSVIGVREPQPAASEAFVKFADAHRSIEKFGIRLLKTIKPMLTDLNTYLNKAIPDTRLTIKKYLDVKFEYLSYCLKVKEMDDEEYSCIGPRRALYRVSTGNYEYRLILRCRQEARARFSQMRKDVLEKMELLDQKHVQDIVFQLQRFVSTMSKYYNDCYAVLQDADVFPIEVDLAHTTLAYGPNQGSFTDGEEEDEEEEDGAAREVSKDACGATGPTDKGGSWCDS

How the values were obtained:
[1] = target: tyrosine hydroxylase (TH), endogenous in mouse striatum and midbrain (mouse (endogenous in C57BL/6 striatum and midbrain)) (UniProt P24529); assay: co-IP; mouse striatal and midbrain lysates (50 mM Tris pH 7.4, 150 mM NaCl, 0.1% SDS, 0.5% Na deoxycholate, 1% Triton X-100); 500 µg lysate with 5 µg TH or PICK1 antibody overnight at 4°C, Protein-G beads, immunoblotting
[2] = target: PICK1, endogenous in mouse striatum and midbrain (mouse (endogenous in C57BL/6 striatum and midbrain)) (UniProt Q62083); assay: as above

binding [1] | binding [2] | Substance
no binding |  | PICK1, endogenous in mouse striatum and midbrain (from UniProt Q62083 1-416)
 | no binding | tyrosine hydroxylase (TH), endogenous in mouse striatum and midbrain (from UniProt P24529 1-498) (enzyme)
